Paper PMC11747885, “Potent inhibitors of the human RNA ligase Rlig1 highlights its role in RNA integrity maintenance under oxidative cellular stress” (Chemical Science, 2025)
Values joined by “and” are separate entries in the source; they are usually repeats but may differ in a detail not shown here. Equal entries are not always repeated. This continues a long series; more values of the same kind are listed elsewhere.

Tested on: HEK293 cells
Assay: Cell viability assay of HEK293 cells treated with inhibitors and menadione
Format: cell-based, human
Settings: w/o Menadione
[1] = 15 µM compound, 20240508 plate 012
[2] = 15 µM compound, 20240508 plate 013
[3] = 15 µM compound, 20240515 plate 014
[4] = 15 µM compound, 20240515 plate 015
[5] = 30 µM compound, 20240508 plate 013
[6] = 30 µM compound, 20240515 plate 014
[7] = 30 µM compound, 20240515 plate 015

Structure (SMILES) | Cell viability raw signal, technical replicates [1] | Cell viability raw signal, technical replicates [2] | Cell viability raw signal, technical replicates [3] | Cell viability raw signal, technical replicates [4] | Cell viability raw signal, technical replicates (30 µM compound, 20240508 plate 012) | Cell viability raw signal, technical replicates [5] | Cell viability raw signal, technical replicates [6] | Cell viability raw signal, technical replicates [7]
Nc1nccc(Nc2ccc(NC(=O)c3ccc(Nc4ccnc5ccccc45)cc3)cc2)n1 [Compound 26] | 295160 and 291000 and 306610 and 315750 | 318330 and 382250 and 331430 and 341500 | 250630 and 277070 and 278420 and 291070 | 225790 and 244140 and 209910 and 233720 | 178520 and 177190 and 190990 and 182770 | 197380 and 188480 and 192620 and 197570 | 195430 and 197940 and 209200 and 205950 | 
Nc1cc(Nc2ccc(NC(=O)c3ccc(Nc4ccnc5ccccc45)cc3)cc2)ccn1 [Compound 36] | 390930 and 375230 and 448500 and 443430 | 394180 and 392840 and 391700 and 389320 | 392830 and 387940 and 370750 and 396460 | 354410 and 435540 and 345790 and 416620 |  | 362770 and 369030 and 365650 and 461440 | 354280 and 363230 and 371180 and 376730 | 326510 and 332180 and 340410 and 339810
Cc1cc(Nc2ccc(NC(=O)c3ccc(Nc4ncnc5ccccc45)cc3)cc2)nc(N)n1 [Compound 45] |  | 375940 and 362170 and 356400 and 364260 | 329510 and 330750 and 330400 and 339930 | 350650 and 339230 and 350070 and 339430 |  |  |  | 
Nc1nccc(Nc2ccc(NC(=O)c3ccc(Nc4ncnc5ccccc45)cc3)cc2)n1 [Compound 47] | 442020 and 407540 and 412630 and 398890 | 390150 and 392520 and 393400 and 396640 | 350590 and 367550 and 349910 and 369710 | 355740 and 361450 and 338520 and 364520 |  | 326280 and 331870 and 354040 and 345370 | 327440 and 313220 and 342900 and 327190 | 308600 and 311450 and 325210 and 325320
